# Assay results published in the supplement of paper PMC8728848.
# The list shows a part of the results.
# B1: GS13971A-bth-447-22-447 (Bacteroides thetaiotaomicron) (protein)
# chain: EDVDNERSKGMFSASQSGFSTIEVYDLGPLNKIDLSIAKAGLEDTGGTVTFSVEQSLLDSLNNADGTSYQLLPPECYTIENATYSVSPGGDRRVTGGSLVYDPHKIYNLCGFDELKYVLPLRVSSTGTPMNSDRTATLYGFIVKEAIVRLASTGGDFVVEGGTTTSPMNLDTEISFENEWDLTTSFATKGADYVDNYNSANSTYYIPLPSDFYTLPDVTIAKGKTTGGSAISLLGETLPPGNYLLPVSLGGLSGQGDASINIDKETVANYFVIKQGGPINRDHWTVTANTEEKTGEVSAAYPHNGQTISLIDGEINTFWHSKWQGGEVAPPYEIILDMGKENSVSQLGLIARQNALTSMNLEIYAGDDGETWNLIGKYFFDGSIKTEQMVPVKACDARWIRIYIPTLGSGSSVGHLAEIYVYGTDK
# Assays:
# Experiment in all cases: glycan array binding signal (z-score within array); higher = stronger binding
# Settings in all cases: glycan notation: IUPAC condensed, linker removed
# GlcNAc(b1-3)Gal(b1-4)Glc = molecular target: GlcNAc(b1-3)Gal(b1-4)Glc
# Summary of the method: (§1)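 The Consortium for Functional Glycomics database supplied 3228 glycan arrays, of which those lacking an available protein sequence were dropped. The binding signal, a within-array Z-score, was averaged across arrays of the same protein sequence and across linkers. Negative scores can be read as non-binding.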
# [1] = molecular target: GlcNAc(b1-3)Gal(b1-4)GlcNAc
# Summary of the method: as §1
# [2] = molecular target: GlcNAc(b1-3)Gal(b1-4)GlcNAc(b1-2)Man(a1-3)[GlcNAc(b1-3)Gal(b1-4)GlcNAc(b1-2)Man(a1-6)]Man(b1-4)GlcNAc(b1-4)GlcNAc
# Summary of the method: as §1
# [3] = molecular target: GlcNAc(b1-3)Gal(b1-4)GlcNAc(b1-2)Man(a1-3)[GlcNAc(b1-3)Gal(b1-4)GlcNAc(b1-2)Man(a1-6)]Man(b1-4)GlcNAc(b1-4)[Fuc(a1-6)]GlcNAc
# Summary of the method: as §1
# [4] = molecular target: GlcNAc(b1-3)Gal(b1-4)GlcNAc(b1-2)[GlcNAc(b1-3)Gal(b1-4)GlcNAc(b1-6)]Man(a1-6)[GlcNAc(b1-3)Gal(b1-4)GlcNAc(b1-2)Man(a1-3)]Man(b1-4)GlcNAc(b1-4)GlcNAc
# Summary of the method: as §1
# [5] = molecular target: GlcNAc(b1-3)Gal(b1-4)GlcNAc(b1-3)Gal(b1-4)GlcNAc
# Summary of the method: as §1
# [6] = molecular target: GlcNAc(b1-3)Gal(b1-4)GlcNAc(b1-3)Gal(b1-4)GlcNAc(b1-2)Man(a1-3)[GlcNAc(b1-3)Gal(b1-4)GlcNAc(b1-3)Gal(b1-4)GlcNAc(b1-2)Man(a1-6)]Man(b1-4)GlcNAc(b1-4)GlcNAc
# Summary of the method: as §1
# [7] = molecular target: GlcNAc(b1-3)Gal(b1-4)GlcNAc(b1-3)Gal(b1-4)GlcNAc(b1-2)Man(a1-3)[GlcNAc(b1-3)Gal(b1-4)GlcNAc(b1-3)Gal(b1-4)GlcNAc(b1-2)Man(a1-6)]Man(b1-4)GlcNAc(b1-4)[Fuc(a1-6)]GlcNAc
# Summary of the method: as §1
# [8] = molecular target: GlcNAc(b1-3)Gal(b1-4)GlcNAc(b1-3)Gal(b1-4)GlcNAc(b1-2)[GlcNAc(b1-3)Gal(b1-4)GlcNAc(b1-3)Gal(b1-4)GlcNAc(b1-6)]Man(a1-6)[GlcNAc(b1-3)Gal(b1-4)GlcNAc(b1-3)Gal(b1-4)GlcNAc(b1-2)Man(a1-3)]Man(b1-4)GlcNAc(b1-4)[Fuc(a1-6)]GlcNAc
# Summary of the method: as §1
# [9] = molecular target: GlcNAc(b1-3)Gal(b1-4)GlcNAc(b1-3)Gal(b1-4)GlcNAc(b1-3)Gal(b1-4)GlcNAc(b1-2)Man(a1-3)[GlcNAc(b1-3)Gal(b1-4)GlcNAc(b1-3)Gal(b1-4)GlcNAc(b1-3)Gal(b1-4)GlcNAc(b1-2)Man(a1-6)]Man(b1-4)GlcNAc(b1-4)GlcNAc
# Summary of the method: as §1
# [10] = molecular target: GlcNAc(b1-3)Gal(b1-4)GlcNAc(b1-3)Gal(b1-4)GlcNAc(b1-3)Gal(b1-4)GlcNAc(b1-2)Man(a1-3)[GlcNAc(b1-3)Gal(b1-4)GlcNAc(b1-3)Gal(b1-4)GlcNAc(b1-3)Gal(b1-4)GlcNAc(b1-2)Man(a1-6)]Man(b1-4)GlcNAc(b1-4)[Fuc(a1-6)]GlcNAc
# Summary of the method: as §1
# [11] = molecular target: GlcNAc(b1-3)Gal(b1-4)GlcNAc(b1-3)Gal(b1-4)GlcNAc(b1-3)Gal(b1-4)GlcNAc(b1-2)[GlcNAc(b1-3)Gal(b1-4)GlcNAc(b1-3)Gal(b1-4)GlcNAc(b1-3)Gal(b1-4)GlcNAc(b1-6)]Man(a1-6)[GlcNAc(b1-3)Gal(b1-4)GlcNAc(b1-3)Gal(b1-4)GlcNAc(b1-3)Gal(b1-4)GlcNAc(b1-2)Man(a1-3)]Man(b1-4)GlcNAc(b1-4)[Fuc(a1-6)]GlcNAc
# Summary of the method: as §1
# [12] = molecular target: GlcNAc(b1-3)Gal(b1-4)GlcNAc(b1-3)Gal(b1-4)GlcNAc(b1-3)Gal(b1-4)GlcNAc(b1-3)Gal(b1-4)GlcNAc(b1-2)Man(a1-3)[GlcNAc(b1-3)Gal(b1-4)GlcNAc(b1-3)Gal(b1-4)GlcNAc(b1-3)Gal(b1-4)GlcNAc(b1-3)Gal(b1-4)GlcNAc(b1-2)Man(a1-6)]Man(b1-4)GlcNAc(b1-4)GlcNAc
# Summary of the method: as §1
# [13] = molecular target: GlcNAc(b1-3)Gal(b1-4)GlcNAc(b1-3)Gal(b1-4)GlcNAc(b1-3)Gal(b1-4)GlcNAc(b1-3)Gal(b1-4)GlcNAc(b1-2)Man(a1-3)[GlcNAc(b1-3)Gal(b1-4)GlcNAc(b1-3)Gal(b1-4)GlcNAc(b1-3)Gal(b1-4)GlcNAc(b1-3)Gal(b1-4)GlcNAc(b1-2)Man(a1-6)]Man(b1-4)GlcNAc(b1-4)[Fuc(a1-6)]GlcNAc
# Summary of the method: as §1
# [14] = molecular target: GlcNAc(b1-3)Gal(b1-4)GlcNAc(b1-3)Gal(b1-4)GlcNAc(b1-3)Gal(b1-4)GlcNAc(b1-3)Gal(b1-4)GlcNAc(b1-2)[GlcNAc(b1-3)Gal(b1-4)GlcNAc(b1-3)Gal(b1-4)GlcNAc(b1-3)Gal(b1-4)GlcNAc(b1-3)Gal(b1-4)GlcNAc(b1-6)]Man(a1-6)[GlcNAc(b1-3)Gal(b1-4)GlcNAc(b1-3)Gal(b1-4)GlcNAc(b1-3)Gal(b1-4)GlcNAc(b1-3)Gal(b1-4)GlcNAc(b1-2)Man(a1-3)]Man(b1-4)GlcNAc(b1-4)[Fuc(a1-6)]GlcNAc
# Summary of the method: as §1
# [15] = molecular target: GlcNAc(b1-3)Gal(b1-4)GlcNAc(b1-3)Gal(b1-4)GlcNAc(b1-3)GalNAc
# Summary of the method: as §1
# [16] = molecular target: GlcNAc(b1-3)Gal(b1-4)GlcNAc(b1-3)GalNAc
# Summary of the method: as §1
# [17] = molecular target: GlcNAc(b1-3)Gal(b1-4)GlcNAc(b1-3)[GlcNAc(b1-3)Gal(b1-4)GlcNAc(b1-3)]GalNAc
# Summary of the method: as §1
# [18] = molecular target: GlcNAc(b1-3)Gal(b1-4)GlcNAc(b1-6)[Gal(b1-3)]GalNAc
# Summary of the method: as §1
# [19] = molecular target: GlcNAc(b1-3)Gal(b1-4)GlcNAc(b1-6)[GlcNAc(b1-3)Gal(b1-3)]GalNAc
# Summary of the method: as §1
# [20] = molecular target: GlcNAc(b1-3)Gal(b1-4)GlcNAc(b1-6)[GlcNAc(b1-3)]Gal(b1-4)GlcNAc
# Summary of the method: as §1
# GlcNAc(b1-3)GalNAc = molecular target: GlcNAc(b1-3)GalNAc
# Summary of the method: as §1
# GlcNAc(b1-3)Man = molecular target: GlcNAc(b1-3)Man
# Summary of the method: as §1
# [21] = molecular target: GlcNAc(b1-3)[GlcNAc(b1-4)][GlcNAc(b1-6)]GlcNAc
# Summary of the method: as §1
# [22] = molecular target: GlcNAc(b1-3)[GlcNAc(b1-6)]Gal(b1-4)GlcNAc
# Summary of the method: as §1
# [23] = molecular target: GlcNAc(b1-3)[GlcNAc(b1-6)]GalNAc
# Summary of the method: as §1
# [24] = molecular target: GlcNAc(b1-4)Gal(b1-4)GlcNAc
# Summary of the method: as §1
# GlcNAc(b1-4)GlcNAc = molecular target: GlcNAc(b1-4)GlcNAc
# Summary of the method: as §1
# [25] = molecular target: GlcNAc(b1-4)GlcNAc(b1-4)GlcNAc
# Summary of the method: as §1
# [26] = molecular target: GlcNAc(b1-4)GlcNAc(b1-4)GlcNAc(b1-4)GlcNAc(b1-4)GlcNAc
# Summary of the method: as §1
# [27] = molecular target: GlcNAc(b1-4)GlcNAc(b1-4)GlcNAc(b1-4)GlcNAc(b1-4)GlcNAc(b1-4)GlcNAc
# Summary of the method: as §1
# [28] = molecular target: GlcNAc(b1-4)[GlcNAc(b1-6)]GalNAc
# Summary of the method: as §1
# [29] = molecular target: GlcNAc(b1-6)Gal(b1-4)GlcNAc
# Summary of the method: as §1
# GlcNAc(b1-6)GalNAc = molecular target: GlcNAc(b1-6)GalNAc
# Summary of the method: as §1
# [30] = molecular target: GlcNAc6S(b1-3)Gal(b1-4)GlcNAc
# Summary of the method: as §1
# Kdn(a2-3)Gal(b1-3)GalNAc = molecular target: Kdn(a2-3)Gal(b1-3)GalNAc
# Summary of the method: as §1
# Kdn(a2-3)Gal(b1-3)GlcNAc = molecular target: Kdn(a2-3)Gal(b1-3)GlcNAc
# Summary of the method: as §1
binder,measurement,setting,value
B1,glycan array binding signal (z-score),GlcNAc(b1-3)Gal(b1-4)Glc,0.376
same,glycan array binding signal (z-score),[1],-0.19
same,glycan array binding signal (z-score),[2],-0.725
same,glycan array binding signal (z-score),[3],0.562
same,glycan array binding signal (z-score),[4],0.752
same,glycan array binding signal (z-score),[5],-0.549
same,glycan array binding signal (z-score),[6],1.15
same,glycan array binding signal (z-score),[7],0.306
same,glycan array binding signal (z-score),[8],-0.034
same,glycan array binding signal (z-score),[9],0.037
same,glycan array binding signal (z-score),[10],-0.698
same,glycan array binding signal (z-score),[11],2.94
same,glycan array binding signal (z-score),[12],0.959
same,glycan array binding signal (z-score),[13],0.389
same,glycan array binding signal (z-score),[14],1.1
same,glycan array binding signal (z-score),[15],-0.292
same,glycan array binding signal (z-score),[16],-0.083
same,glycan array binding signal (z-score),[17],-0.564
same,glycan array binding signal (z-score),[18],-0.311
same,glycan array binding signal (z-score),[19],-1.21
same,glycan array binding signal (z-score),[20],-0.796
same,glycan array binding signal (z-score),GlcNAc(b1-3)GalNAc,-0.266
same,glycan array binding signal (z-score),GlcNAc(b1-3)Man,0.122
same,glycan array binding signal (z-score),[21],-0.084
same,glycan array binding signal (z-score),[22],0.279
same,glycan array binding signal (z-score),[23],-0.607
same,glycan array binding signal (z-score),[24],0.013
same,glycan array binding signal (z-score),GlcNAc(b1-4)GlcNAc,0.218
same,glycan array binding signal (z-score),[25],-0.982
same,glycan array binding signal (z-score),[26],-0.605
same,glycan array binding signal (z-score),[27],-0.067
same,glycan array binding signal (z-score),[28],-0.265
same,glycan array binding signal (z-score),[29],2.1
same,glycan array binding signal (z-score),GlcNAc(b1-6)GalNAc,0.156
same,glycan array binding signal (z-score),[30],0.237
same,glycan array binding signal (z-score),Kdn(a2-3)Gal(b1-3)GalNAc,-0.336
same,glycan array binding signal (z-score),Kdn(a2-3)Gal(b1-3)GlcNAc,-0.109

# Reprinted from the listing for reference:
binder,measurement,setting,value
B1,glycan array binding signal (z-score),[12],0.959
same,glycan array binding signal (z-score),[13],0.389
